A negative result means that nothing was seen under these conditions.

Protein sequences, listed by entry. Tags and fused reporters are not part of them. Residues count along the entry.
UniProt P0AGE0, 2-178: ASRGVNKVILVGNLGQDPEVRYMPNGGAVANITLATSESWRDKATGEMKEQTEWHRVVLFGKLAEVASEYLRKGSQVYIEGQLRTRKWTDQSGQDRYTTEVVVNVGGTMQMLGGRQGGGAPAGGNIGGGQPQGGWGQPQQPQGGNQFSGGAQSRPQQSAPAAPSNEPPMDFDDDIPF

The values below come from US20190376122.

In this series the target is E. coli SSB (Escherichia coli) (UniProt P0AGE0). Briefly: binding assay. To be noted: salt mixture 350 mM NaCl, 600 mM KCl, 150 mM Mg(OAc)2; no measurable binding; 25 C; purified recombinant protein; label: dT-DABCYL and dT-FAM internal; single-stranded DNA.

Consider “GGCCCGTAGGAGGAAAGGACATCTTCTAGCATACGGGCCGTCAAGTTCATGGCCAGTCAAGTCGTCAGAAATTTCGCACCAC [MB molecular beacon]”, for which the binding result is given as “no binding”.
